{"source": "paper PMC10932240", "binders": {"B1": {"name": "VPS18 (protein, UniProt F1SSU6 1-973)", "chain": "MASILDEYEDSLSRSAVLQPGCPSVGIPHSGYVNAQLEKEAPIFSKQRIDFTPSERITSLVVSCNQLCMSLGKDTLLRIDLGKANEPNHMELGRKDDAKVHKMFLDHTGSHLLIALSSTEVLYVNRNGQKVRPLARWKGQLVESVGWNKALGTESSTGPILVGTAQGQIFEAELSASEGGLFGPAPDLYFRPLYVLNEEGGPAPVCSLEAERGPEGRGFVIATTRQRLFQFIGRASEGAEAQGFSGLFAAYADHPPPFREFPSSLGYSELAFYTPKLRSAPRAFAWMMGDGVLYGSLDCGRPDSLLSEERVWEYPEGVGPGGSPPLAIVLTQFHFLLLLADRVEAVCTLTGQVVLRDHFLEKFGPLRHMVKDSSTGHLWAHTERAVFRYHVQREARDVWRTYLDMNRFDLAKEYCRERPDCLDTVLAREADFCFRQRRYLESARCYALTQSYFEEIALKFLEARQEEALAEFLQRKLASLKPAERTQATLLTTWLTELYLSRLGALQGDPEALNLYRETRERFRAFLSSPRHKEWLFASRASIHELLASHGDTEHMVYFAVIMQDYERVVAYHCQHEAYEEALAVLARHRDPQLFYKFSPILIRHIPRQLVDAWIELGSRLDARQLIPALVNYSQGGEAQQVSQAIRYMEFCVNVLGETEQAIHNYLLSLYARGQPASLLAYLEQAGTSPHRVHYDLKYALRLCAEHGHHRACVHVYKVLELYEEAVDLALQVDVDLAKQCADLPEEDEELRKKLWLKIARHVVQEEEDVQTAMACLASCPLLKIEDVLPFFPDFVTIDHFKEAICSSLKAYNYHIQELQQEMEEATASAQRIRRDLQELRGRYGTVEPQDKCATCDFPLLNRPFYLFLCGHMFHADCLLQAVRPGLPAYKQARLEELQRKLGAVPPPSKGSARAKEAEAGVAASGPSREQLKADLDELVAAECVYCGELMIRSIDRPFIDPQCYEEEHLSWL"}}, "biological_target": "PRRSV structural protein GP5 (PRRSV Hn07-1 (Type 2 PRRSV))", "experiment": "affinity purification with mass spectrometry; primary PAMs infected with PRRSV (MOI 1, 36 h), NP-40 lysate; anti-PRRSV-GP5 mAb overnight at 4 °C, protein A/G agarose 4 h at 4 °C, five washes; SDS-PAGE, silver stain, bands differing from the IgG-IP lane excised, LC-MS/MS", "note": "No constants are given. Whether binding was seen depends on the method and setting. Binding seen in cells or lysates may run through a third protein. These calls come from enrichment with a bait or labelling near it, and not all partners need be listed.", "data": [{"binder": "B1", "values": [{"measurement": "binding", "result": "binds"}]}]}
